Values of other authors as cited in US20230310537A1, “TREATMENT OF VASCULAR EHLERS-DANLOS SYNDROME AND RELATED SYNDROMES” (The Johns Hopkins University, priority 2020, published 2023).
At least one structure is not confirmed: it was looked up by name or label, or the drawing left a doubt.

Key:
[1] = test system: severe (Col3a1 G938D/+) and mild (Col3a1^G209S/+) mouse models of vEDS; settings: either vEDS mouse model; interventions that inhibit PKC/ERK activation; cited from earlier work
[2] = test system: MFS mice; settings: therapies that attenuate TGF-β signaling and related pathways; cited from earlier work

In the case of `CC(=O)Nc1cccc(-n2c(=O)n(C3CC3)c(=O)c3c(Nc4ccc(I)cc4F)n(C)c(=O)c(C)c32)c1` [trametinib], the “aortic disease rupture risk” value [1] is listed as “rescue aortic disease rupture risk” and the aortic disease [2] is listed as “suppress aortic disease”.
